Among all 340,000 compounds or so, about 170 (0.05%) were called active. Inconclusive results, whose numbers are uncertain, are shown with a selection of clear calls. Calls follow the shape of the dose curve; as a rule, active = well fitted inhibition curve with a large enough effect in the signal ratio, with a control signal flat (not every such curve was filed as active); inconclusive = small, poorly fitted or top-dose-only effect, or effect the other way, or a change in a side signal; inactive = flat fitted curve, though single readings scatter; the % refers to the signal ratio. Potencies beside an inconclusive call are fits to weak or partial responses and may not hold up.
Test: qHTS Assay to Find Inhibitors of Chronic Active B-Cell Receptor Signaling;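 as to activity change, negative = inhibition: plate controls were basal doxycycline-induced cells for no effect and cells given 10 µM MG132 for full effect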
Details: ABC-DLBCL IkBa-CBG/CBR reporter, luminescence ratio (green luciferase fused to IkBa over red control in TMD8 lymphoma cells), 4 h; activity change, negative = inhibition: at 46.1 µM (top of the series) unless noted
Outline: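 TMD8 ABC-DLBCL cells carrying doxycycline-inducible green luciferase fused to IkappaBalpha plus unfused red luciferase were exposed to compounds (up to 46 uM) for 4 hrs at 37C. Activity came from the overlap-corrected green/red luminescence ratio.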
With `COc1ccc(-c2cc(C(=O)Nc3c(C)nn(Cc4ccc(Cl)cc4)c3C)no2)cc1` the activity change, negative = inhibition was inconclusive: 23.8%. In the case of `CCCCNc1c(-c2cccc(-c3ccc(OC)cc3)c2)nc2cc(C)ccn12`, the activity change, negative = inhibition was inconclusive: 9.3%. For `Cc1ccccc1NC(=O)c1nc(S(C)(=O)=O)ncc1Cl`, the activity change, negative = inhibition was inconclusive: 19%. For `O=c1nc(C(F)(F)F)nc2ccccn12`, the activity change, negative = inhibition was inconclusive: 0.489%. With `COc1ccc(C2=NN(C(=O)CCC(=O)O)C(c3ccccc3F)C2)cc1` (configuration not stated) the activity change, negative = inhibition was “inactive”. In the case of `O=C(Nc1nc(-c2ccccc2)cs1)C1COc2ccccc2O1` (configuration not stated), the Potency was inconclusive: 6.51 µM [rising, partial curve, poor fit]. For `CCCN1CCN(C(=O)CCS(=O)(=O)c2cc3c(cc2Cl)NC(=O)CO3)CC1`, the activity change, negative = inhibition was inconclusive: 15.2%. With `C=CCn1c(=O)c2ccccc2n2c(SCC(=O)Nc3sc(C(=O)N(CC)CC)c(C)c3C(=O)OCC)nnc12` the activity change, negative = inhibition was “inactive”. In the case of `COc1ccc(S(=O)(=O)N(Cc2cc3cc(C)ccc3[nH]c2=O)CC2CCCO2)cc1` (configuration not stated), the activity change, negative = inhibition was inconclusive: 7.01%. For `Cc1cccc(/C(N)=N/OC(=O)N2CCOCC2)c1`, the Potency was inconclusive: 35.5 µM [falling, single point]. With `N/C(=N\OC(=O)COc1ccc(Cl)cc1Br)c1ccncc1` the activity change, negative = inhibition was “inactive”. For `CC(C)c1ccccc1NC(=O)COC(=O)CCN1C(=O)/C(=C\C=C\c2ccccc2)SC1=S`, the Potency was inconclusive: 0.58 µM [falling, partial curve, poor fit]. With `CC(=O)c1c(C)nc2ccc(Cl)cn12` the activity change, negative = inhibition was inconclusive: 0.221%. In the case of `O=C(COc1ccc2c3c(c(=O)oc2c1)CCC3)NCc1ccccn1`, the activity change, negative = inhibition was inconclusive: 3.19%. In the case of `Cc1cc(C)n2nc(CNS(=O)(=O)c3c(F)c(F)c(F)c(F)c3F)nc2n1`, the Potency was inconclusive: 35.5 µM [falling, single point]. In the case of `O=C(Cc1ccccc1)c1c[nH]c(C(=O)O)c1`, the activity change, negative = inhibition was inconclusive: -11.3%. With `COc1cc(OC)cc(-c2c(C#Cc3ccsc3)c3cc(Br)ccc3n2C)c1` the activity change, negative = inhibition was inconclusive: -3.36%. With `Cc1nc(SC2CC(=O)N(c3ccccc3)C2=O)n[nH]1` (configuration not stated) the activity change, negative = inhibition was inconclusive: 10.4%. With `Cc1cccc([N+](=O)[O-])c1NC(=O)CSc1nnc2ccccn12` the activity change, negative = inhibition was inconclusive: 5.31%. In the case of `CC1CC(C)CN(c2ncnc3c2cnn3C)C1` (configuration not stated), the Potency was inconclusive: 7.94 µM [falling, partial curve, poor fit]. For `Cn1c(CCN2CCN(c3ccccn3)CC2)nc2cc(NC(=O)COc3ccccc3)ccc21`, the activity change, negative = inhibition was inconclusive: 4.18%. With `O=C(O)c1ccc(N2C(=O)Nc3ccccc3N2O)cc1` the Potency was inconclusive: 35.5 µM [falling, single point]. With `O=C(Nc1ccccc1N1CCN(c2ccc(F)cc2)CC1)c1ccccc1` the activity change, negative = inhibition was inconclusive: 10.2%. For `Cc1ccc(C)n1-c1ccc(-c2ccn[nH]2)cc1`, the activity change, negative = inhibition was “inactive”. For `COc1ccc(OCCn2cnc(Cl)c2Cl)cc1`, the activity change, negative = inhibition was inconclusive: 5.53%. With `Cc1cc(CN(C)Cc2cn(C)nc2-c2ccc(Oc3ccccc3)cc2)on1` the activity change, negative = inhibition was “inactive”. For `COc1ccc(N2CCOCC2)c(NC(=O)c2ccc3c(c2)OCO3)c1`, the activity change, negative = inhibition was “inactive”. For `CS(=O)(=O)c1ccc2nc(NC(=O)c3cccc(Cl)c3)sc2c1`, the Potency was inconclusive: 7.94 µM [falling, partial curve]. With `Nc1cc(N)nc(SCCc2ccccc2)n1` the Potency was inconclusive: 35.5 µM [falling, single point]. With `O=C1C(Cc2ccccc2)NC(=S)N1c1ccccc1` (configuration not stated) the Potency was inconclusive: 35.5 µM [falling, single point]. In the case of `CCOC(=O)CNC(=O)CSc1nnc(NC(=O)c2ccc(C)cc2)s1`, the activity change, negative = inhibition was “inactive”. With `COc1ccc(-c2noc(Cc3ccc(Cl)cc3)n2)cc1OC` the activity change, negative = inhibition was inconclusive: 12.6%. With `CC1(C)N=c2ccc([N+](=O)[O-])c(N)c2=[N+]1[O-]` the activity change, negative = inhibition was inconclusive: 8.07%. In the case of `Clc1ccc(CSC2=NCCCN2)cc1Cl`, the activity change, negative = inhibition was “inactive”. For `CC(=O)N1CCc2c(sc(NC(=O)C3CCN(S(=O)(=O)c4cccs4)CC3)c2C(N)=O)C1`, the activity change, negative = inhibition was inconclusive: -9.77%. In the case of `Cc1nc([N+](=O)[O-])c(Br)n1Cc1ccc(Cl)c(Cl)c1`, the Potency was inconclusive: 5.62 µM [rising, partial curve]. For `Cc1ccccc1-c1nc(-c2ccc(Br)o2)no1`, the activity change, negative = inhibition was inconclusive: 1.83%. For `Cc1ccc(NC(=O)c2cc([N+](=O)[O-])ccc2N2CCOCC2)cc1C`, the Potency was inconclusive: 17.8 µM [falling, single point]. With `Cc1cnnn1-c1ccc([N+](=O)[O-])cc1` the activity change, negative = inhibition was inconclusive: 15.5%. In the case of `O=C(CN1CCN(CC(=O)Nc2ccccc2F)CC1)Nc1ccc2c(c1)OCCO2`, the Potency was inconclusive: 17.8 µM [falling, single point]. For `CN(CC(=O)Nc1nc2ccccc2s1)S(=O)(=O)c1ccccc1`, the Potency was inconclusive: 25.9 µM [rising, partial curve, poor fit]. In the case of `COc1ccc(C(=O)NCCNC(=O)c2ccccn2)cc1`, the activity change, negative = inhibition was “inactive”. With `CNC(=S)N1CCN(c2nc(-c3ccc(F)cc3)cs2)CC1` the activity change, negative = inhibition was “inactive”. For `O=C(Nc1ccc2c(c1)OCO2)c1c(F)cccc1F`, the Potency was inconclusive: 29.1 µM [falling, single point]. In the case of `COc1cc(C2C(C#N)=C(N)OC3=C2C(=O)CCC3)ccc1OC(=O)N1CCOCC1` (configuration not stated), the activity change, negative = inhibition was inconclusive: 5.2%. For `Cc1ccc(NC(=O)Nc2ccnc(-c3cccnc3)n2)cc1`, the activity change, negative = inhibition was “inactive”. For `O=S(=O)(NC1CCCCC1N1CCN(c2cccc(Cl)c2)CC1)c1ccccc1` (configuration not stated), the activity change, negative = inhibition was inconclusive: 6.59%. For `Cn1cc([N+](=O)[O-])c(C(=O)Nc2cc(Oc3ccccc3)cc([N+](=O)[O-])c2)n1`, the Potency was inconclusive: 5.8 µM [falling, full curve]. With `COC(=O)c1sccc1NC(=O)Nc1cccc(C(C)=O)c1` the Potency was inconclusive: 11.2 µM [falling, partial curve, poor fit]. With `Cc1ccc(S(=O)(=O)N(CC(=O)NCC2CCCO2)C2CCCCC2)cc1` (configuration not stated) the activity change, negative = inhibition was inconclusive: 6.47%. With `CN(C)c1ccc(C(=O)n2nnc3ccccc32)cc1` the activity change, negative = inhibition was “inactive”. For `N#Cc1c(N)nc2c(c1-c1ccc(F)cc1)CCC2`, the activity change, negative = inhibition was inconclusive: 8.48%. In the case of `O=C1OC(c2ccccc2)=C/C1=C/c1cccs1`, the Potency was inconclusive: 14.1 µM [falling, partial curve, poor fit]. In the case of `CCOC(=O)C1(CC2CC2)CCN(C(=O)c2cc(OC)nc3ccccc23)CC1`, the activity change, negative = inhibition was inconclusive: -0.209%. In the case of `Cc1ccc(-c2sc(-c3ccccc3)nc2CC(=O)Nc2ccccc2F)cc1`, the activity change, negative = inhibition was inconclusive: -1.94%. With `CCN(CC)c1cc(C)c2ccccc2n1` the activity change, negative = inhibition was inconclusive: -116%. With `COc1ccc(C(=O)OCC(=O)c2ccc(S(=O)(=O)N3CCCCC3)cc2)c(OC)c1` the activity change, negative = inhibition was inconclusive: 0.49%. In the case of `Cc1ccccc1CS(=O)(=O)c1nnc([C@H](CC(C)C)NC(=O)OC(C)(C)C)o1`, the activity change, negative = inhibition was inconclusive: 17.2%. With `Cc1ccc(-c2noc(=O)n2CC(=O)Nc2ccc(S(=O)(=O)NC3CC3)cc2)cc1` the activity change, negative = inhibition was inconclusive: -21.4%. For `CCCCCCCNC(=O)C1(CC2CC(c3ccc(Cl)cc3)=NO2)CCN(C(=O)C2CCCC2)CC1` (configuration not stated), the activity change, negative = inhibition was “inactive”. In the case of `COc1cc(NS(=O)(=O)c2ccc(NC(=O)CSC3=NCCS3)cc2)nc(OC)n1`, the activity change, negative = inhibition was inconclusive: -12%. In the case of `Cc1ccc(S(=O)(=O)NCC2CCC(C(=O)N3CCN(C)CC3)CC2)cc1` (configuration not stated), the activity change, negative = inhibition was “inactive”. With `CCN(CC)c1ccc(/C=N/NC(=O)C(O)(c2ccccc2)c2ccccc2)o1` the Potency was inconclusive: 20.6 µM [falling, partial curve]. In the case of `CCn1c(C)nc2cc(C(=O)N/N=C(\C)c3ccc(OC)cc3O)ccc21`, the activity change, negative = inhibition was “inactive”. For `O=C(O)CC1SC(=Nc2cccc(O)c2)NC1=O` (configuration not stated), the activity change, negative = inhibition was inconclusive: 11%. With `O=C(CNCc1ccccc1Cl)Nc1ccc2c(c1)OCCO2` the Potency was inconclusive: 12.6 µM [falling, partial curve]. In the case of `Cc1nn(Cc2ccccc2)c(C)c1NC(=O)CSc1nc(-c2ccccc2)nc2c1cnn2-c1ccccc1`, the activity change, negative = inhibition was inconclusive: -0.0234%. In the case of `COc1ccc(S(=O)(=O)N2CCCCCC2)cc1C(=O)NCc1ccc(C)cc1`, the activity change, negative = inhibition was “inactive”. With `Nc1cccc(-c2nc3ccccc3[nH]2)c1` the activity change, negative = inhibition was inconclusive: -22%. In the case of `O=C(O)c1ccc(Cl)c(NCc2ccncc2)c1`, the activity change, negative = inhibition was inconclusive: -14.9%. In the case of `O=C(NCCCN1CCCCCC1)c1ccc(CS(=O)(=O)Cc2ccccc2F)o1`, the activity change, negative = inhibition was “inactive”. With `Cc1ccc(S(=O)(=O)N2CCN(c3ncnc4sccc34)CC2)cc1C` the Potency was inconclusive: 14.6 µM [falling, partial curve]. For `COc1ccc(C(=O)Nc2ccc(-c3ccc(C)o3)cc2)cc1S(=O)(=O)N1CCOCC1`, the activity change, negative = inhibition was inconclusive: 17.8%. For `CCO/C(C)=N/n1c2nc3ccccc3nc2c2c(=O)n(Cc3ccccc3Cl)c(C)nc21`, the activity change, negative = inhibition was inconclusive: 5.18%. In the case of `Cc1ccc(NC(CC(=O)c2ccccc2)c2ccc(F)cc2)cc1` (configuration not stated), the activity change, negative = inhibition was inconclusive: 15.3%. In the case of `CCOc1ccc(NC(=S)N2CCN(S(=O)(=O)c3ccc(OC)cc3)CC2)cc1`, the activity change, negative = inhibition was “inactive”. For `COc1cc(OC)cc(C(=O)Nc2nnc(Cc3ccc(OC)c(OC)c3)s2)c1`, the activity change, negative = inhibition was inconclusive: 0.732%. For `N=C1C(c2ccccc2)=C(O)CN1c1cccc(S(=O)(=O)NCc2ccco2)c1`, the activity change, negative = inhibition was “inactive”. For `O=C(Nc1cccc2nsnc12)c1cccs1`, the Potency was inconclusive: 8.91 µM [falling, partial curve, poor fit]. In the case of `Cc1ccccc1CN1C(=O)/C(=C\c2ccc(C(=O)NCCN3CCOCC3)cc2)Sc2ccccc21`, the Potency was inconclusive: 35.5 µM [falling, single point]. With `O=c1c2c([nH]c3ccccc13)CCCCCC2` the activity change, negative = inhibition was “inactive”. For `O=C(NC(=S)Nc1ccccc1N1CCCC1)c1ccccc1[N+](=O)[O-]`, the activity change, negative = inhibition was “inactive”.

From PubChem BioAssay AID493014 (National Center for Advancing Translational Sciences (NCATS), 2011)
Potency is read from the fitted curve at half-maximal effect.
